From paper PMC11794699
These are yes or no findings as the source states them, for the method shown. In cells and extracts the contact can be indirect. Some entries that bind do so weakly or less than the wild type.

By UniProt entry, the sequences of proteins in these tests, tags left out. Residues count along the entry.
UniProt Q9QYE5, residues 24-1247: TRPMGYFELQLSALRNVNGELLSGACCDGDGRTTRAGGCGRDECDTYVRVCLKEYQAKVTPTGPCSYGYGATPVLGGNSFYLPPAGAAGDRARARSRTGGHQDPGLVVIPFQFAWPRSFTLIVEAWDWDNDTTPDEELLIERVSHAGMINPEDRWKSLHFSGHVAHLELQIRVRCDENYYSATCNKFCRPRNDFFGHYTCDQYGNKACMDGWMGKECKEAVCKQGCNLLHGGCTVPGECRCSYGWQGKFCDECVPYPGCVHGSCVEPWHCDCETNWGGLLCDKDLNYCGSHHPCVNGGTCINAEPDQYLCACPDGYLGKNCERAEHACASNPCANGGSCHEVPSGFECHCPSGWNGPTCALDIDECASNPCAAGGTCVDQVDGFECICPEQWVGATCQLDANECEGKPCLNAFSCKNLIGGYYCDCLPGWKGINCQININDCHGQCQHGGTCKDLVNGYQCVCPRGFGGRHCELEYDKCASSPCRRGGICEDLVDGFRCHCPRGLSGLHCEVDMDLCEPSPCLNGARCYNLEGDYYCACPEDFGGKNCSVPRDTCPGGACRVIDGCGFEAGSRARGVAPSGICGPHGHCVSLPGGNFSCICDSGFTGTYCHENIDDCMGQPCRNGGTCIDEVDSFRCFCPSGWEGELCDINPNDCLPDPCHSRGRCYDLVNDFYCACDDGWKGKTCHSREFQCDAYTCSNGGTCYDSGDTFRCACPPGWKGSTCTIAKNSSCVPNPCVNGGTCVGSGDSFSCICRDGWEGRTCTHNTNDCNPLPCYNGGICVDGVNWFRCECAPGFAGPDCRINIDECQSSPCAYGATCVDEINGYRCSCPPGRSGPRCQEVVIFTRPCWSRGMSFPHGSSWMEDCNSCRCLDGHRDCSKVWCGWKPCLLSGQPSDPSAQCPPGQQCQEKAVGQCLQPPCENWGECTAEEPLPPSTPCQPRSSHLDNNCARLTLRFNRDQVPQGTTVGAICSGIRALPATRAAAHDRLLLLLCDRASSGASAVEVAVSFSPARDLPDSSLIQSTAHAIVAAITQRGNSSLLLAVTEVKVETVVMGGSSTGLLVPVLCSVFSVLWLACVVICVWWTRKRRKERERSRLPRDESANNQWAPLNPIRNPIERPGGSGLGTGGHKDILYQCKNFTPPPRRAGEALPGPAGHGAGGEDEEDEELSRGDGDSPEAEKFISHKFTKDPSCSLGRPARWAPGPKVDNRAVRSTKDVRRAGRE
UniProt Q9Y219, residues 24-1238: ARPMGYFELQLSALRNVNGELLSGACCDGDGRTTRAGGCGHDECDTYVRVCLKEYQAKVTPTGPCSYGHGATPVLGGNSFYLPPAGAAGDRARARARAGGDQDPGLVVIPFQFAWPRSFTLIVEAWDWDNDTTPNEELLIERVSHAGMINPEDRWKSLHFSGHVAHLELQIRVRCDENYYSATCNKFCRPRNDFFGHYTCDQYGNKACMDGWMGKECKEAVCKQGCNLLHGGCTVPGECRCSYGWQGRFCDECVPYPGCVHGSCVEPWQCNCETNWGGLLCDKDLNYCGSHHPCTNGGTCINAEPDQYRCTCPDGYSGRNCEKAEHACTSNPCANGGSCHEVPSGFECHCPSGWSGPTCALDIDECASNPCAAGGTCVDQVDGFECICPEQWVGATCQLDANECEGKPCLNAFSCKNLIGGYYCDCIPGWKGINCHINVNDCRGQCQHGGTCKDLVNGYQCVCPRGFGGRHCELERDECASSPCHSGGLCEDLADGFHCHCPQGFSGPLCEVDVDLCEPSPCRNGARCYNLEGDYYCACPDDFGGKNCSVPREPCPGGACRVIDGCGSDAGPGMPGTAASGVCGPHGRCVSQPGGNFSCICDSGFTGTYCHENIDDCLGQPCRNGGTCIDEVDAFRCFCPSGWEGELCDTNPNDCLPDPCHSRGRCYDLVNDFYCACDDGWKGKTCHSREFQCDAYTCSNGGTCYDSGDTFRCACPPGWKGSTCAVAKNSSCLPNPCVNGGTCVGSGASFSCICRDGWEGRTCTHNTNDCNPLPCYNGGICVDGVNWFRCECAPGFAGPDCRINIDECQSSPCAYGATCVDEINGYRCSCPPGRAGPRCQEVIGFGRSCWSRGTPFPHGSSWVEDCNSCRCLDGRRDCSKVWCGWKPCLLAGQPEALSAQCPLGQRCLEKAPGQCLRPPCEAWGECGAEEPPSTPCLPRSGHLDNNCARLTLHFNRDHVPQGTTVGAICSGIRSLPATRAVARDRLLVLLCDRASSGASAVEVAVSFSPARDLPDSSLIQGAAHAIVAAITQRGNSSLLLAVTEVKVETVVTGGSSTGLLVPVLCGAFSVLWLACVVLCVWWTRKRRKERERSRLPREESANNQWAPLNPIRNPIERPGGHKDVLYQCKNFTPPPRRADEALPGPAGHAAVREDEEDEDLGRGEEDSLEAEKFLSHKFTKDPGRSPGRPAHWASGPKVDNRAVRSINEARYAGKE
UniProt O00548, residues 18-723: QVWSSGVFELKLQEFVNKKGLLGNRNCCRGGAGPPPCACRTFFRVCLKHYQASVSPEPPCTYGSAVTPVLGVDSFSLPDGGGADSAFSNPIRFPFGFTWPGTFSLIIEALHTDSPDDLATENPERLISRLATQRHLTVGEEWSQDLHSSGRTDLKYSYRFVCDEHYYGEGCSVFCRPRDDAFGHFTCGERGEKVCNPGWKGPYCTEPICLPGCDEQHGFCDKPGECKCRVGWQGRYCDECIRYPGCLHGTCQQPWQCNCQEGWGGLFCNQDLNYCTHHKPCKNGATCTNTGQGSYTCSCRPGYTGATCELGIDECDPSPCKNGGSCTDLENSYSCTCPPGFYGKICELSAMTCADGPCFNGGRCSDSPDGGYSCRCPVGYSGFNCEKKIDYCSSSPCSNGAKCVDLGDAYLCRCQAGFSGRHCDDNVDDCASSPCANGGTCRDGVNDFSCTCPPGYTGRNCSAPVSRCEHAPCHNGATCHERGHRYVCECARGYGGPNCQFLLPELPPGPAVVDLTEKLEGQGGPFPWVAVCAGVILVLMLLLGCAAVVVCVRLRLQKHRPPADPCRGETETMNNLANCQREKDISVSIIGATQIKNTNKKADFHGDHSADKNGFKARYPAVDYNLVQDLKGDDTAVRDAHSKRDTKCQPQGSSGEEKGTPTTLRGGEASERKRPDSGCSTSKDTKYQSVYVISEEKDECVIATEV
UniProt Q99K46: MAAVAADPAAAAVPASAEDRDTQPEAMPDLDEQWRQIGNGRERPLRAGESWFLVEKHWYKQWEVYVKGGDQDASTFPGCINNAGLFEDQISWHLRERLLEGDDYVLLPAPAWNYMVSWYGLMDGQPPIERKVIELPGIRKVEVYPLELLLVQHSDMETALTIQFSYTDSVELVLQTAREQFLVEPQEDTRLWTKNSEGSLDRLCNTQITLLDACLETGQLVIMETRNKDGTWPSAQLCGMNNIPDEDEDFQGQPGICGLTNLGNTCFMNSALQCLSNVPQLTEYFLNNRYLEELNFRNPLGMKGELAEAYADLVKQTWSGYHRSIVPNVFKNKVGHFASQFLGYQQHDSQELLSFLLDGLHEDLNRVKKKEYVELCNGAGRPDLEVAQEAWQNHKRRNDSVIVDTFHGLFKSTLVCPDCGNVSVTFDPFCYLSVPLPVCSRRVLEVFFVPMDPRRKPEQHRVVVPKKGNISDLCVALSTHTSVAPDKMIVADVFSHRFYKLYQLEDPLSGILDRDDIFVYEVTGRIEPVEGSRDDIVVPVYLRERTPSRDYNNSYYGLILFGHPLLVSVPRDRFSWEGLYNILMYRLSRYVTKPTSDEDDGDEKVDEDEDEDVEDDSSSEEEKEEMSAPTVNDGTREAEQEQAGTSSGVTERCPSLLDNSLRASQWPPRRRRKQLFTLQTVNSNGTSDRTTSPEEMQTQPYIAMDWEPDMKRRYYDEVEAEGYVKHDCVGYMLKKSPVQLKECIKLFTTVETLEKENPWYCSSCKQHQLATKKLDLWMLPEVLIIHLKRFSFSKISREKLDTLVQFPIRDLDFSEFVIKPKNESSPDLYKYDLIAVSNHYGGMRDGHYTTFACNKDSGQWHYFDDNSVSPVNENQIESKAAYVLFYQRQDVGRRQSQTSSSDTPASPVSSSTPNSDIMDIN
UniProt P51784: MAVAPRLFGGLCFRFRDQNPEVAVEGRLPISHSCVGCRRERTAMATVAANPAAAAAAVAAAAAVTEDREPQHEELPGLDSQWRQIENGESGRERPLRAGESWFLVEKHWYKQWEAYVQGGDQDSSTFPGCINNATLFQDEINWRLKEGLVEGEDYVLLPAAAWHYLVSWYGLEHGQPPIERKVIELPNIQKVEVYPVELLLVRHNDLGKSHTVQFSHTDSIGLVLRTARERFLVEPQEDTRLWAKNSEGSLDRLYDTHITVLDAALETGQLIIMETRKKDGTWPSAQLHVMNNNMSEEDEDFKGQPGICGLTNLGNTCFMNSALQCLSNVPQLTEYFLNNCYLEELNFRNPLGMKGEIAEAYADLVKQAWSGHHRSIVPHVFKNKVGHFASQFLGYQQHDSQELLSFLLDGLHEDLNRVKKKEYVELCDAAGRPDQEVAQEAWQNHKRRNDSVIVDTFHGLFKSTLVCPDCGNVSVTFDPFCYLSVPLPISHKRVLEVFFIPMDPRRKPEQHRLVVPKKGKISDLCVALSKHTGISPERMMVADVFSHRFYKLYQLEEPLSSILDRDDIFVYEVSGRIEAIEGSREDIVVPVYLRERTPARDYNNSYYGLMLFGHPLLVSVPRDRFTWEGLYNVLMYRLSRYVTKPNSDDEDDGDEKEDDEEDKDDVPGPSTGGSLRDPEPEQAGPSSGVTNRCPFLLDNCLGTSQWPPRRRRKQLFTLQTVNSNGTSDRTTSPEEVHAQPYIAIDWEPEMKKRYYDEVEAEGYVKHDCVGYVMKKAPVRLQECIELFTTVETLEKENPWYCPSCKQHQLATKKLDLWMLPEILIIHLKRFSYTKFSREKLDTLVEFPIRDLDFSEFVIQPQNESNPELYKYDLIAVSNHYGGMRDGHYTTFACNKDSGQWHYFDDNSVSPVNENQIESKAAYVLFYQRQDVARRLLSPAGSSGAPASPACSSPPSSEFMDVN

What was measured:
[1] = target: JAG2 (mouse spleen tissue) (mouse (endogenous in spleen tissue)) (UniProt Q9QYE5); assay: co-IP; mouse spleen tissue; antibody overnight at 4 °C, protein A/G beads, Western blot
JAG2-Myc = JAG2-Myc (UniProt Q9Y219); assay: co-IP; tagged proteins co-transfected into HEK293T cells for 72 h; cell lysates precipitated with anti-myc or anti-Flag beads followed by immunoblotting; input and IgG as controls
myc-tagged DLL1 = myc-tagged DLL1 (UniProt O00548); assay: as above

| Substance | binding [1] | binding (JAG2-Myc) | binding (myc-tagged DLL1) |
| --- | --- | --- | --- |
| Usp11 (mouse spleen tissue) (from UniProt Q99K46 1-921) (enzyme) | binds | – | – |
| Flag-tagged Usp11 (from UniProt P51784 1-963) (enzyme) | – | binds | binds |
